The assay concerns the target T1, Flag-tagged full-length human RND3 (pcDNA3.1-Flag-hRND3) (human) (UniProt P61587).
T1 sequence: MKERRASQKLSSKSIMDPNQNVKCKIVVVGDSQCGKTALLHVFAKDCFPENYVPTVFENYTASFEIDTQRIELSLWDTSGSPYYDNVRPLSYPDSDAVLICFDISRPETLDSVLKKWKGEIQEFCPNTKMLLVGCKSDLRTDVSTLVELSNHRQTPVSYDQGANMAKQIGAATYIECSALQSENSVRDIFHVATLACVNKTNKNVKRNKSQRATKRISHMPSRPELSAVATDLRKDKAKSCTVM
The assay can be described thus: affinity purification with mass spectrometry; HEK293T transfected with Flag-hRND3 (2 μg), 24 h; immunoprecipitation from lysate, interacting proteins analysed by mass spectrometry.

Sequences of proteins named here, by UniProt entry; tags and fusion partners are left off.
UniProt P19474: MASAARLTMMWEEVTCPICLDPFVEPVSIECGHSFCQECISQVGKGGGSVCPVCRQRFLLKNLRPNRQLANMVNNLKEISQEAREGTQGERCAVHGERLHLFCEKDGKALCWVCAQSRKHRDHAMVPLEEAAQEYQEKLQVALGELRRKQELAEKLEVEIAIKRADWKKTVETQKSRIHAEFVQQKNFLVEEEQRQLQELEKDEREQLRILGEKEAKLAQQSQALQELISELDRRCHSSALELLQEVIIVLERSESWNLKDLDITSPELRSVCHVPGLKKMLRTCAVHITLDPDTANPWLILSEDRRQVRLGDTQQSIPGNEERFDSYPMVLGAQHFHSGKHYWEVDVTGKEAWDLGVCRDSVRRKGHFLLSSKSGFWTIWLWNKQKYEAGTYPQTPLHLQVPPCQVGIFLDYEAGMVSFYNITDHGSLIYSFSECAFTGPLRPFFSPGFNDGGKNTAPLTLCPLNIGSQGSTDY

Results are given in words; binding and its absence hold for the method and conditions named. Binding seen in cells or lysates may run through a third protein. These calls come from enrichment with a bait or labelling near it, and not all partners need be listed. Where a sequence is shown, tags or fusion partners need not be part of it.

With “endogenous TRIM21 (from UniProt P19474 1-475)”, the binding result is recorded as “binds”.

The values above are taken from article PMC12889043.
